The test system of the test is HEK293A TEAD-LUC reporter. Briefly: TEAD-luciferase reporter activity (YAP activation), robust Z score vs plate; higher = stronger YAP/TEAD activation. The conditions noted are these: 24 h. (In general: Reporter assays use an easily measured gene product as a stand-in for the process of interest.)

Counter-ions that a name gives are not always drawn. The list shows a part of the results. This data set is noisy: repeats of one test often differ as much as different tests do.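 Human kidney-derived cells stably carry a construct in which eight TEAD-binding elements drive luciferase, measured by luminescence in a drug-repurposing library screen. A hit is any compound whose signal exceeds the plate mean by more than five robust Z scores.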

TEAD-luciferase reporter activity data for 27 compounds are collected here from the supplement of paper PMC10735217.

Turning to `Cc1cccc(C(=O)Nc2nnn[nH]2)n1`, the TEAD-luciferase reporter activity reads like this: (compound concentration: 200 nM) inactive: 1.3; (compound concentration: 2 uM) inactive: 1.21; (compound concentration: 10 uM) inactive: 0.986.
The like results for `CC1=C(/C=C/C(C)=C/C=C/C(C)=C/CO)C(C)(C)CCC1` were, in that order, inactive: 0.87, inactive: -1.03 and inactive: 0.47.
Consider `Cn1ncnc1[C@H]1c2n[nH]c(=O)c3cc(F)cc(c23)N[C@@H]1c1ccc(F)cc1` [talazoparib], for which the TEAD-luciferase reporter activity (compound concentration: 2 uM) is inactive: -1.04.
Regarding `[O-][n+]1cc[n+]([O-])c2ccccc21`, the TEAD-luciferase reporter activity by setting is: (compound concentration: 200 nM) inactive: 2.18; (compound concentration: 2 uM) inactive: 0.534; (compound concentration: 10 uM) inactive: -0.313.
The like results for `C/N=C(/NC)NCc1ccccc1` [bethanidine] were, in that order, inactive: 0.426, inactive: 1.71 and inactive: 0.726.
For `CCCCCCCCCCCCCCCCOC[C@H](COP(=O)([O-])OCC[N+](C)(C)C)OCCCCC(=O)O`, the TEAD-luciferase reporter activity runs as follows: (compound concentration: 200 nM) inactive: 1.86; (compound concentration: 2 uM) inactive: -0.887; (compound concentration: 10 uM) inactive: -0.528.
The like results for `CC(CN(C)C)CN1c2ccccc2OCOc2ccc(Cl)cc21` (stereo unspecified) [Traboxopine hydrochloride] were, in that order, inactive: 0.42, active: 5.08 and inactive: 0.629.
The like results for `Cc1nc(N)ccc1CNC(=O)Cn1c(C)cnc(NCCc2ccccc2)c1=O` were, in that order, inactive: -0.825, inactive: -1.31 and inactive: -0.622.
As for `CCc1ccc(CN2CCCCC23Cc2ccccc2CNC3=O)cc1` (stereo unspecified), the TEAD-luciferase reporter activity is, setting by setting: (compound concentration: 200 nM) inactive: -3.62; (compound concentration: 10 uM) inactive: 2.48.
The like results for `C[N+](C)(C)[C@H](Cc1c[nH]c(S)n1)C(=O)O` [L-(+)-Ergothioneine] were, in that order, inactive: -0.695 and inactive: -0.285.
Regarding `O=C(Nc1ccc(Cl)c(Cl)c1)C1=C(O)c2cc(Cl)ccc2S(=O)(=O)CC1` [enolicam], the TEAD-luciferase reporter activity by setting is: (compound concentration: 200 nM) inactive: -1.11; (compound concentration: 2 uM) inactive: -0.329; (compound concentration: 10 uM) inactive: 1.35.
Taken in the same sequence, the figures for `C[C@@H](c1ccc(-c2ccn(C)c(=O)c2)cc1)N1CC[C@](CC(C)(C)O)(c2ccccc2)OC1=O` were inactive: -1.21, inactive: -1.35 and inactive: 0.195.
The like results for `C#CCOC(=O)C1CN=CNC1` (stereo unspecified) were, in that order, inactive: -1.64, active: 5.34 and inactive: 0.0614.
The like results for `CCC(=O)OCC(=O)[C@@]1(OC(=O)CC)[C@H](C)C[C@H]2[C@H]3[C@H]([C@@H](O)C[C@@]21C)[C@@]1(C)C=CC(=O)C=C1C[C@H]3Cl` were, in that order, inactive: -1.02, inactive: 0.266 and inactive: 0.723.
Take `C=C1CCC[C@]2(C)C=C3OC(=O)C(C)=C3C[C@@H]12` [Atractylenolide I]: the TEAD-luciferase reporter activity is, setting by setting: (compound concentration: 200 nM) inactive: -0.413; (compound concentration: 2 uM) inactive: -1.04; (compound concentration: 10 uM) inactive: 0.449.
The like results for `COc1ccc(-n2nc(C(F)F)cc2-c2ccc(S(C)=O)cc2)cc1` (stereo unspecified) were, in that order, inactive: 0.0581, inactive: 0.125 and inactive: 0.0879.
As to `COC(=O)C[C@@H](O)C[C@@H](O)/C=C/C=C(c1ccccc1)c1ccccc1`, the TEAD-luciferase reporter activity runs as follows: (compound concentration: 200 nM) inactive: -0.753; (compound concentration: 2 uM) inactive: -1.67; (compound concentration: 10 uM) inactive: -2.08.
The like results for `CC(=O)SC[C@@H](Cc1ccc2c(c1)OCO2)C(=O)N[C@@H](C)C(=O)OCc1ccccc1` [Fasidotril] were, in that order, inactive: -0.468, inactive: -0.803 and inactive: -0.217.
For `O=C(O)[C@@H](c1ccc(OCc2ccc3ccccc3n2)cc1)C1CCCC1`, the TEAD-luciferase reporter activity runs as follows: (compound concentration: 200 nM) inactive: -0.23; (compound concentration: 2 uM) inactive: -1.41; (compound concentration: 10 uM) inactive: -0.234.
With `Cc1cccc(C)c1NC(=O)C1CCCCN1CCO` (stereo unspecified) [droxicainide], the TEAD-luciferase reporter activity runs as follows: (compound concentration: 200 nM) active: 7.9; (compound concentration: 2 uM) inactive: -0.26; (compound concentration: 10 uM) inactive: -0.964.
The like results for `C[C@H](NC(=O)C(C)(C)Oc1ccc(C(F)(F)F)cn1)[C@@H](Cc1ccc(Cl)cc1)c1cccc(C#N)c1` [Taranabant] were, in that order, inactive: 3.98, inactive: -0.559 and inactive: -1.14.
In the case of `C[C@]1(C(=O)N2CCOCC2)CO[C@H](c2nc(-c3ccncc3)c(-c3ccc(F)cc3)[nH]2)OC1`, the TEAD-luciferase reporter activity is inactive: 0.649 (compound concentration: 200 nM), inactive: -1.05 (compound concentration: 2 uM) and inactive: -1.35 (compound concentration: 10 uM).
The like results for `O=CN1CCC(C(=O)NCCN2CCC(=C3c4ccccc4C=Cc4ccccc43)CC2)CC1` were, in that order, inactive: 0.73, inactive: -1.78 and inactive: -0.809.
Turning to `O=C(N[C@@H]1CC[C@@H](c2cccc(F)c2F)CN(CC(F)(F)F)C1=O)N1CCC(n2c(=O)[nH]c3ncccc32)CC1`, the TEAD-luciferase reporter activity was inactive: -2.35 (compound concentration: 200 nM) and inactive: -0.42 (compound concentration: 10 uM).
As for `O=C(N[C@@H]1CC[C@@H](c2cccc(F)c2F)CN(CC(F)(F)F)C1=O)N1CCC(n2c(=O)[nH]c3ncccc32)CC1` [telcagepant], the TEAD-luciferase reporter activity (compound concentration: 2 uM) is inactive: 0.387.
For the compound `CCCCCOc1ccc(-c2cc(-c3ccc(C(=O)N[C@H]4C[C@@H](O)[C@@H](O)NC(=O)[C@@H]5[C@@H](O)[C@@H](C)CN5C(=O)[C@H]([C@H](O)CC(N)=O)NC(=O)[C@H]([C@H](O)[C@@H](O)c5ccc(O)c(OS(=O)(=O)O)c5)NC(=O)[C@@H]5C[C@@H](O)CN5C(=O)C([C@@H](C)O)NC4=O)cc3)no2)cc1` (stereo partly specified) [Micafungin], the TEAD-luciferase reporter activity was inactive: -0.726 (compound concentration: 200 nM) and inactive: 3.01 (compound concentration: 10 uM).
Consider `CCCCCOc1ccc(-c2cc(-c3ccc(C(=O)N[C@H]4C[C@@H](O)[C@@H](O)NC(=O)[C@@H]5[C@@H](O)[C@@H](C)CN5C(=O)[C@H]([C@H](O)CC(N)=O)NC(=O)[C@H]([C@H](O)[C@@H](O)c5ccc(O)c(OS(=O)(=O)O)c5)NC(=O)[C@@H]5C[C@@H](O)CN5C(=O)C([C@@H](C)O)NC4=O)cc3)no2)cc1` (stereo partly specified) [Micafungin Sodium], for which the TEAD-luciferase reporter activity (compound concentration: 2 uM) was inactive: -0.732.
